Results are given in words; binding and its absence hold for the method and conditions named. Binding seen in cells or lysates may run through a third protein. Some binding calls cover weakened binding; strength is not graded here. For part of these data: Tags and fused reporters may be left off the sequences shown.
What was measured:
[1] = biological target: BACE1-HA (β-site amyloid precursor protein-cleaving enzyme 1 with hemagglutinin tag) (UniProt P56817); assay: co-IP; HEK293 cells cotransfected with BACE1-HA and mock-GFP or SNX4-GFP; lysate precipitated with anti-HA antibody, protein G sepharose; blots for HA, GFP and MHC1
[2] = biological target: BACE1-HA (β-site amyloid precursor protein-cleaving enzyme 1 with hemagglutinin tag) (UniProt P56817); assay: co-IP; mouse cortical neurons cotransfected with BACE1-HA and mock-GFP or SNX4-GFP; lysate precipitated with anti-HA antibody, protein G sepharose; blots for HA, GFP and MHC1
[3] = biological target: endogenous β-site amyloid precursor protein-cleaving enzyme 1 (BACE1) of mouse brain (mouse (endogenous in brain tissue)) (UniProt P56818); assay: co-IP; mouse brain lysate precipitated with anti-BACE1 antibody; blots for BACE1 and SNX4; endogenous proteins

Chains of the proteins cited; added tags and fusions are not shown. Residues count along the entry.
UniProt P56817, residues 46-501: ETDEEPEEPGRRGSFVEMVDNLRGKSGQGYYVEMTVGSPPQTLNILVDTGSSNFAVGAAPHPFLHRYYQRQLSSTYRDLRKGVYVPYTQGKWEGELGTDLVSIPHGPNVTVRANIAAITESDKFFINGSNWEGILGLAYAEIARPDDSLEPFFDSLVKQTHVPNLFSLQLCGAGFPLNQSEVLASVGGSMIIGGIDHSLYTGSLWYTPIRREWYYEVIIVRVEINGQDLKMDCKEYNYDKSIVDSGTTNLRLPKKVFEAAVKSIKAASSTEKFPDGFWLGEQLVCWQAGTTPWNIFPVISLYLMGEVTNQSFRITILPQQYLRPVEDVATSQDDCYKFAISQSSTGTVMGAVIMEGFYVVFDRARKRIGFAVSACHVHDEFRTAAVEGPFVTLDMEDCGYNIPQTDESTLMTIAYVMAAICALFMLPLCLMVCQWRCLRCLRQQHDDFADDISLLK
UniProt P56818, residues 46-501: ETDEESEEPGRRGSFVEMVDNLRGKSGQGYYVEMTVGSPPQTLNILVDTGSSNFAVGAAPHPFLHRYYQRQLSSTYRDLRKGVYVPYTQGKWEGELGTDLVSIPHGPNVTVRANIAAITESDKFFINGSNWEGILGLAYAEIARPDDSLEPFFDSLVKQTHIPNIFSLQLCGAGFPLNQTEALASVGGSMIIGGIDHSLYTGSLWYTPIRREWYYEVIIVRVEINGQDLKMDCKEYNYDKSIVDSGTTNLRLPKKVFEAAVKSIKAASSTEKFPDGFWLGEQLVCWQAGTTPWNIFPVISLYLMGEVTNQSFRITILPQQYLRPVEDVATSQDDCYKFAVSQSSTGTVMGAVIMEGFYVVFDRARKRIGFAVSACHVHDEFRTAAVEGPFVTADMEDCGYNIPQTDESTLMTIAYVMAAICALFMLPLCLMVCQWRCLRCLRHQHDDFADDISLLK

binding [3] | Binder | binding [1] | binding [2]
 | GFP-SNX4 (human sorting nexin-4 tagged with green fluorescent protein at its N-terminus) (protein, UniProt O95219-1 1-450) MEQAPPDPERQLQPAPLEPLGSPDAGLGAAVGKEAEGAGEESSGVDTMTHNNFWLKKIEISVSEAEKRTGRNAMNMQETYTAYLIETRSVEHTDGQSVLTDSLWRRYSEFELLRSYLLVYYPHIVVPPLPEKRAEFVWHKLSADNMDPDFVERRRIGLENFLLRIASHPILCRDKIFYLFLTQEGNWKETVNETGFQLKADSRLKALNATFRVKNPDKRFTDLKHYSDELQSVISHLLRVRARVADRLYGVYKVHGNYGRVFSEWSAIEKEMGDGLQSAGHHMDVYASSIDDILEDEEHYADQLKEYLFYAEALRAVCRKHELMQYDLEMAAQDLASKKQQCEELVTGTVRTFSLKGMTTKLFGQETPEQREARIKVLEEQINEGEQQLKSKNLEGREFVKNAWADIERFKEQKNRDLKEALISYAVMQISMCKKGIQVWTNAKECFSKM | binds | binds
binds | endogenous sorting nexin-4 (SNX4) of mouse brain (protein, UniProt Q91YJ2 1-450) MEQAPPDPEKLLQPGPLEPLGGPGAVLEAAVGEENEGTREDGSGVDTMTGNNFWLKKIEISVSEAEKRTGRNAVNMQETYTAYLIETRSVEHADGQSVLTDSLWRRYSEFELLRNYLLVYYPHVVVPPLPEKRAEFVWHKLSADNMDPDFVERRRVGLENFLLRVASHPVLCRDKIFYSFLTQEGNWKETVNETGFQLKADSRLKALNATFRVKNPDKRFTELRHYSDELQSVISHLLRVRARVADRLYGVYKVHGNYGRVFSEWSAIEKEMGDGLQSAGHHMDVYASSIDDILEDEEHYADQLKEYLFYAEALRAVCRKHELMQYDLETAAQDLAAKKQQCEELATGTVRTFSLKGMTTKLFGQETPEQREARIKVLEEQINEGEQQLKSKNLEGREFVKNAWADIERFKEQKNRDLKEALISYAVMQISMCKKGIQVWTNAKECFSKM |  | 

Source: publication PMC5251330
